These are yes or no findings as the source states them, for the method shown. Binding seen in cells or lysates may run through a third protein. These calls come from enrichment with a bait or labelling near it, and not all partners need be listed.
Target: P21-activated kinase 1 (PAK1) (rat (endogenous in primary rat oligodendrocytes)) (UniProt P35465)
Test: affinity purification with mass spectrometry

Sequences of proteins named here, by UniProt entry; tags and fusion partners are left off.
UniProt P35465: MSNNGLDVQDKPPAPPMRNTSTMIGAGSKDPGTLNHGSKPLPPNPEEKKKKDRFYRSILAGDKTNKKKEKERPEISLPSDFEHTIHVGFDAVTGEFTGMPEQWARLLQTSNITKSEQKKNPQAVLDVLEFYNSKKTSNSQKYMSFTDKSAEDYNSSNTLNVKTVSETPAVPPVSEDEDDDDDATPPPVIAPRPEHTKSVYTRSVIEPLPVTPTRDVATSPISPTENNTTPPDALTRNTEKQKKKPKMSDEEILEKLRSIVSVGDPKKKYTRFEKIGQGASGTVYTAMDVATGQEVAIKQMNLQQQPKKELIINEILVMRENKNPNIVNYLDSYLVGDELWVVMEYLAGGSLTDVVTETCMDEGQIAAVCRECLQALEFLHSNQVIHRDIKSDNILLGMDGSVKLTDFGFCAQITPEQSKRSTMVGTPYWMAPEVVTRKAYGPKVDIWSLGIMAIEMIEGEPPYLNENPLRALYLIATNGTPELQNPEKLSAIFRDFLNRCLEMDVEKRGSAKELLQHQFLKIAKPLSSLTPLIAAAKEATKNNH
UniProt P45592: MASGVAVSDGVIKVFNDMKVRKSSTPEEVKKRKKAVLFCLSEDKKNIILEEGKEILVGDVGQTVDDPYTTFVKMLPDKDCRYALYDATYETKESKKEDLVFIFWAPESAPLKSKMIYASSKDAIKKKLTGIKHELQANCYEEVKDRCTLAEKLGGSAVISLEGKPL

binding: binds
Substance: cofilin-1 (from UniProt P45592 1-166)
